Measurements published in patent US20190338294A1, “ORTHOGONAL TRANSCRIPTIONAL SWITCHES DERIVED FROM TET REPRESSOR HOMOLOGS FOR SACCHAROMYCES CEREVISIAE” (The Johns Hopkins University, priority 2016, published 2019).
At least one structure is not confirmed: it was looked up by name or label, or the drawing left a doubt.

Chains of the proteins cited; added tags and fusions are not shown. A line that says so, or that is headed by a name, gives the form on record, which may keep a tag or linker.
UniProt P04483, other isoform, or with tags, fused parts or gaps: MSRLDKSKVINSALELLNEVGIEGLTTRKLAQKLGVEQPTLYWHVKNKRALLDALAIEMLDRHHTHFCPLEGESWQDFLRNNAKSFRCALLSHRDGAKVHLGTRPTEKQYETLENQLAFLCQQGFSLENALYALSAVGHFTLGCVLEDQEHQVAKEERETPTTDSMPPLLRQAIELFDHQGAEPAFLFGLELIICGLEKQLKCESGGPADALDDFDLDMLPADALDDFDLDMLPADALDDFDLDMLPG
UniProt P04483, other isoform, or with tags, fused parts or gaps S12G/E19G/A56P/D148E/H179R: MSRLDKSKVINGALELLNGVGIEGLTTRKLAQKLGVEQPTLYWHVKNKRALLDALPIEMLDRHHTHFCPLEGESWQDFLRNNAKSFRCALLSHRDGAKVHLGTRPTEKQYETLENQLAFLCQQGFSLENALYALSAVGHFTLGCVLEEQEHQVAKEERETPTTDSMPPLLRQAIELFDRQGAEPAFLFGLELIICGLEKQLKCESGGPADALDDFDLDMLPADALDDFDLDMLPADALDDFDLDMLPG
UniProt O33453, other isoform, or with tags, fused parts or gaps: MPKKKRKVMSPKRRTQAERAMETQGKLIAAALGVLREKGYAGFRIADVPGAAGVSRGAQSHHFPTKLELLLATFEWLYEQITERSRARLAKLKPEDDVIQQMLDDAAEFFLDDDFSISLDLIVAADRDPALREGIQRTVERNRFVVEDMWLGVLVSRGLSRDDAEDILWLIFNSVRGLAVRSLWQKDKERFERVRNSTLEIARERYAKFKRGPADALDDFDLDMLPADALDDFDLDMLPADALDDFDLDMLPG

Columns and labels:
camTA (=camR-VP16-NLS) = assay: Camphor-Off switch, GFP reporter, orthogonality test; format: cell-based, Pseudomonas putida; details: SC with 25-μM doxycycline, 25-μM D-camphor, 48-μM DAPG or 150-μM p-cumate
phlTA (=phlF-VP16) = assay: DAPG-Off switch, GFP reporter, flow cytometry (strain DapG-TA); format: cell-based, Pseudomonas; details: SC with 25-μM doxycycline, 25-μM D-camphor, 48-μM DAPG or 150-μM p-cumate
tTA (=tetR-VP16) = target: T1, tTA (=tetR-VP16) (Escherichia coli, UniProt P04483); assay: Tet-Off switch, GFP reporter, orthogonality test; format: cell-based; details: SC with 25-μM doxycycline, 25-μM D-camphor, 48-μM DAPG or 150-μM p-cumate
T1 construct: expressed in transfected cells; host or cells: Saccharomyces cerevisiae BY4742, integrated pSIB527 (strain TetOffG)

cymTA(=NLS-cymR-VP16) = target: T2, cymTA(=NLS-cymR-VP16) (Pseudomonas putida, UniProt O33453); assay: Cumate-Off switch, GFP reporter (strain cymG-TA); format: cell-based; details: for intensity of reporter GFP fluorescence, Cumate-Off switch: SC with 25-μM doxycycline, 25-μM D-camphor, 48-μM DAPG or 150-μM p-cumate; for Expression of GFP with drug: p-Cumate 150 μM, On w/o drug
T2 construct: (cymTA in pSIB470); expressed in transfected cells; host or cells: Saccharomyces cerevisiae BY4741, integrated pSIB470 (strain cymG-TA)

[1] = target: rtTA (=mutated tetR-VP16) (Escherichia coli, UniProt P04483, A56P/D148E/E19G/H179R/S12G); assay: Tet-On system, GFP reporter in BY4741-derived transformants; details: only background GFP fluorescence in the absence of doxycycline

C[C@H]1c2cccc(O)c2C(=O)C2=C(O)[C@]3(O)C(=O)C(C(N)=O)=C(O)[C@@H](N(C)C)[C@@H]3[C@@H](O)[C@@H]21 [doxycycline]
intensity of reporter GFP fluorescence, Camphor-Off switch (camTA (=camR-VP16-NLS)): strong GFP signal
intensity of reporter GFP fluorescence, DAPG-Off switch (phlTA (=phlF-VP16)): strong GFP signal
intensity of reporter GFP fluorescence, Tet-Off switch (tTA (=tetR-VP16)): decreased to the background level
intensity of reporter GFP fluorescence, Cumate-Off switch (cymTA(=NLS-cymR-VP16)): strong GFP signal
doxycycline concentration at which GFP significantly expressed [1]: more than 10 μM

CC(C)c1ccc(C(=O)O)cc1 [p-Cumate, p-isopropylbenzoate]
intensity of reporter GFP fluorescence, Camphor-Off switch (camTA (=camR-VP16-NLS)): strong GFP signal
intensity of reporter GFP fluorescence, DAPG-Off switch (phlTA (=phlF-VP16)): strong GFP signal
intensity of reporter GFP fluorescence, Tet-Off switch (tTA (=tetR-VP16)): strong GFP signal
intensity of reporter GFP fluorescence, Cumate-Off switch (cymTA(=NLS-cymR-VP16)): decreased to the background level
Expression of GFP with drug (cymTA(=NLS-cymR-VP16)): Off
Expression of GFP with drug (cymTA(=NLS-cymR-VP16); listed as p-cumate): expected expression profile
